# From patent US20180177742A1 (priority 2015, published 2018)
# Assay: clinical
# Details: both, human, in vivo, iv, 0.7 mg/kg
smiles,measurement,value
"CCN(CC)CC(=O)Nc1c(C)cccc1C [lidocaine IV bolus, lidocaine]",AUC(0-inf),2000 ng·h/mL
same,AUC(0-t),1980 ng·h/mL
same,Cmax,1780 ng/mL
same,Tmax,7.8 min
